Reference: PMC8058344, “ARIH1 signaling promotes anti-tumor immunity by targeting PD-L1 for proteasomal degradation” (Nature Communications, 2021)
These are yes or no findings as the source states them, for the method shown. In cells and extracts the contact can be indirect. Some results given as binding are weak or reduced against the parent protein; the word gives no strength.

By UniProt entry, the sequences of proteins in these tests, tags left out. Where a name states a change or a piece, a line headed by the entry shows the natural chain unless it says otherwise. Residues count along the entry.
UniProt Q9NZQ7, 19-290: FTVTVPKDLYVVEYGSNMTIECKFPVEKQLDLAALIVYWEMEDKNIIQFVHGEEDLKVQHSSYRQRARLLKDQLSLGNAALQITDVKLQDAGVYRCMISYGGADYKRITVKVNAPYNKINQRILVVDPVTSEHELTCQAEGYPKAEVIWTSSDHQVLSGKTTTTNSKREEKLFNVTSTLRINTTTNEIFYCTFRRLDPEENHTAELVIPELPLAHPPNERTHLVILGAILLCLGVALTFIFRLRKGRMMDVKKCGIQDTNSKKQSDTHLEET
UniProt Q9Y4X5, whole entry: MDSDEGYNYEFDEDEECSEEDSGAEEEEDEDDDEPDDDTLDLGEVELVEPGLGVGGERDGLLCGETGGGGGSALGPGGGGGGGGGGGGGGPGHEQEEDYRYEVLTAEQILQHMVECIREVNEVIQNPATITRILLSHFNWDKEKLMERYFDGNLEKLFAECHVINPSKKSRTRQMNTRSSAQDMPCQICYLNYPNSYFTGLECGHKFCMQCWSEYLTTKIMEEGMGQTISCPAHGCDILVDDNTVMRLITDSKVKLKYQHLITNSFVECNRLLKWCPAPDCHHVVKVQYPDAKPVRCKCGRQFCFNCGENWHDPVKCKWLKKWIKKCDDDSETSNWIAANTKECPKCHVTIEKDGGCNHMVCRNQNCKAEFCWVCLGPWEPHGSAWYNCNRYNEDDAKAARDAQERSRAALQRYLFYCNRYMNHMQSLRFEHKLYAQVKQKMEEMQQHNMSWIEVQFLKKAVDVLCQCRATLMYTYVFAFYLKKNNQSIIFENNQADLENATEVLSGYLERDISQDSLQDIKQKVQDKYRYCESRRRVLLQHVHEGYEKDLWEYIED

Molecular target: Flag-PD-L1 (WT) (human) (UniProt Q9NZQ7)
Assay: co-IP; Flag-PD-L1 (WT or mutant) immunoprecipitated from transfected HEK293T lysates, blot for endogenous GSK3α/GSK3β or HA-ARIH1; RIPA buffer (1% Triton X-100, 100 mM Tris-HCl pH 8.8, 100 mM NaCl, 0.5 mM EDTA), 4 °C; cells with or without 10 μM ES-072, tunicamycin or 10 μM MG132

Substance: HA-ARIH1 (WT) (from UniProt Q9Y4X5 1-557) (enzyme)
- binding: binds
